Results: PubChem BioAssay AID1117319 (Southern Research Institute, 2015)
The campaign covered roughly 260,000 compounds. About 1,500 (0.58%) were called active. Inconclusive means that the source gave no clear call. Such entries were picked first, then a sample of the others.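 The calls were made as follows: active = inhibition above a set limit at one or more doses, reproduced on every date tested; inconclusive = results disagree between test dates, or hit never tested in dose response; inactive = the rest.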

By UniProt entry, the sequences of proteins in these tests, tags left out. Where a name states a change or a piece, a line headed by the entry shows the natural chain unless it says otherwise.
UniProt P69720: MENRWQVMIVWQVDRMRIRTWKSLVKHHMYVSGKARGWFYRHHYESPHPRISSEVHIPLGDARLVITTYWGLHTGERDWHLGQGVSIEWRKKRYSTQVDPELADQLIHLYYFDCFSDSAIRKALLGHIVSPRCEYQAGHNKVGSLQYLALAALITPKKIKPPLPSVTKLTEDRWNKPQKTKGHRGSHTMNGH
UniProt P69721: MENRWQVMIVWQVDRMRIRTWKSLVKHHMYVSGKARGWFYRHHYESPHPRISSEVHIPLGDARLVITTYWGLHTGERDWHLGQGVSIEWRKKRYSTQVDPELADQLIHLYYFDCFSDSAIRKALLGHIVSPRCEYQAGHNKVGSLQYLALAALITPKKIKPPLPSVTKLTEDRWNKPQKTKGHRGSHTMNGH
UniProt P69722: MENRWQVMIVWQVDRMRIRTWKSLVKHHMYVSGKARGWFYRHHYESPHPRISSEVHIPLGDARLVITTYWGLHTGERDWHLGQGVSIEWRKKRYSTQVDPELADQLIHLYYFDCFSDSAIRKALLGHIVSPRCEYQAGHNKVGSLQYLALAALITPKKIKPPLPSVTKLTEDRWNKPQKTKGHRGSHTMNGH
UniProt P69723: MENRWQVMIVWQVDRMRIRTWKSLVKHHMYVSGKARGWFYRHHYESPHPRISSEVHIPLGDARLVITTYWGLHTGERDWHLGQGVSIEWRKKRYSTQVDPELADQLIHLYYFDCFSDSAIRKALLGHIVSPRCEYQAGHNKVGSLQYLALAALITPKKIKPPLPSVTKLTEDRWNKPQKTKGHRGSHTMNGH
UniProt Q9HC16: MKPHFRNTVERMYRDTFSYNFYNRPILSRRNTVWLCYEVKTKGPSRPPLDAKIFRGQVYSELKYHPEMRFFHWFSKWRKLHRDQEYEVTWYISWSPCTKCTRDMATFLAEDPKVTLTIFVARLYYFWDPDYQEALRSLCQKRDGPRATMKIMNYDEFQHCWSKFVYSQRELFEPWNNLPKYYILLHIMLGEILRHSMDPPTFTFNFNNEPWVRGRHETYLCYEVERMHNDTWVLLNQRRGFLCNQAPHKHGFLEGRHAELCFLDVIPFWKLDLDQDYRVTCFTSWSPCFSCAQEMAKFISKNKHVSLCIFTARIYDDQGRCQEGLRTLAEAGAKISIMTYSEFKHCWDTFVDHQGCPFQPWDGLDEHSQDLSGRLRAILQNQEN

Biological target: Virion infectivity factor (Human immunodeficiency virus type 1 group M subtype B (isolate BH10)) + Virion infectivity factor (Human immunodeficiency virus type 1 group M subtype B (isolate BRU/LAI)) + Virion infectivity factor (Human immunodeficiency virus type 1 group M subtype B (isolate PCV12)) + Virion infectivity factor (Human immunodeficiency virus type 1 group M subtype B (isolate HXB2)) + DNA dC->dU-editing enzyme APOBEC-3G (Homo sapiens) (UniProt P69720+P69721+P69722+P69723+Q9HC16)
Assay: inhibitors of Vif binding to APOBEC3G peptide, primary screen, biochemical, TR-FRET, GST-Vif 1-94, biotin-A3G peptide, dose response retest (AID 1117319);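 also: Vif residues 1-94 fused to GST binding biotinylated APOBEC3G peptide 110-148; 0% = full assay without inhibitor and 100% = GST in place of GST-Vif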
Conditions: stronger effect = higher value

SMILES | inhibition
N#CC1=C(N)Oc2n[nH]c(-c3cccnc3)c2C1c1ccc([N+](=O)[O-])o1 (stereo unspecified) | inconclusive: 43.3%
CC(C)(C)NC(=S)Nc1cccc(C(F)(F)F)c1 | inconclusive: 52%
COCCn1nnnc1C(c1cc2cc(C)ccc2[nH]c1=O)N1CCN(C2CCCCC2)CC1 (stereo unspecified) | inconclusive: 42.6%
CCOC(=O)c1c(C)[nH]c(C(=O)N2CCCC(C(=O)c3ccccc3OC)C2)c1C (stereo unspecified) | inconclusive: 39.8%
O=C(CN1CCN(c2ccc(O)cc2)CC1)Nc1ccc2c(c1)OCCCO2 | inconclusive: 44.2%
O=C(N/N=C/c1cn(-c2cccs2)nc1-c1ccccc1)c1ccccc1O | inconclusive: 59.1%
O=C(Nc1ccc(Cl)c(Cl)c1)N1CCSC1c1ccco1 (stereo unspecified) | inconclusive: 58.6%
CCOc1ccc2nc(NC(NC(=O)CC)(C(=O)OC)C(F)(F)F)sc2c1 (stereo unspecified) | inconclusive: 35.6%
Cc1cccc(OCc2nnc(SCc3nc4ccccc4c(=O)[nH]3)o2)c1 | inconclusive: 35.1%
CCOC(=O)c1c(C)[nH]c(C)c1-c1ccccc1OC | inconclusive: 35.2%
CC(=O)N1CCN(c2ccc(NCc3ccc(C(C)C)cc3)cc2)CC1 | inconclusive: 46.1%
Cc1cc(OCCCCCNCCO)ccc1Cl | inconclusive: 43.5%
Cc1cccc(C)c1OCC(=O)Nc1ccc(S(=O)(=O)Nc2ccccn2)cc1 | inconclusive: 50.2%
CN(C)CCCNc1cc(C(C)(C)C)nc2c(-c3ccc(Cl)cc3)cnn12 | inconclusive: 54.3%
CC(C)(C=O)C1=CC(=O)c2ccccc2C1=O | inconclusive: 37.3%
Cn1cc(C(=O)N/N=C/c2ccc(Br)c([N+](=O)[O-])c2)c2ccccc21 | inactive: -0.7%
Cc1ccc2oc3nc(C)c(C(=O)O)cc3c(=O)c2c1 | inactive: 3.05%
O=C1/C(=C\c2ccccc2)CCC/C1=C/c1ccccc1 | inactive: -1.78%
C=CCNCCCCOc1ccc(OCc2ccccc2)cc1 | inconclusive: 34.3%
COc1ccc(C2CC(=O)N(CC(=O)NCC3CCCO3)c3ccccc3S2)cc1OC (stereo unspecified) | inconclusive: 56.7%
CN(C)/C=C1\C=C(c2ccccc2)OC1=O | inconclusive: 55.7%
Cc1ccc(NC(=O)c2ccoc2C)cc1C | inconclusive: 42.3%
Cc1cc2c(s1)CCCCC(=O)N2 | inconclusive: 48.9%

SMILES | inhibition
COc1ccccc1NC(=O)C(C)OC(=O)CN1C(=O)C2CC=CCC2C1=O (stereo unspecified) | inactive: -6.25%
C/C(CC(=O)NC(C)c1ccccc1)=N\NC(N)=S (stereo unspecified) | inconclusive: 42%
CC(=O)Oc1cc2cccc(OC(C)=O)c(=O)c2c(OC(C)=O)c1OC(C)=O | inconclusive: 47.2%
CCC(=O)Nc1nc2ccccc2n1CCN(C)C | inconclusive: 34.6%
Oc1ccc(CNc2ccccc2F)c2cccnc12 | inconclusive: 18.9%
CN(C)S(=O)(=O)N(CC(=O)Nc1cccc(F)c1)c1ccccc1 | inconclusive: 60.7%
COc1ccc(/C=C/C(=O)Nc2ccc(N3CCOCC3)cc2)cc1 | inconclusive: 38.9%
Nc1nc(-c2ccc3c(c2)OCCO3)cs1 | inconclusive: 56.9%
CC(=O)C1=C(O)C(=O)N(CCc2c[nH]c3ccccc23)C1c1ccco1 (stereo unspecified) | inconclusive: 38.1%
CCn1c(COc2ccc3c(c2)OCO3)nnc1SCC(=O)c1ccccc1 | inactive: 9%
CC(C)Oc1ccc(Cc2cnc(=S)[nH]c2N)cc1 | inconclusive: 37.9%
COc1cc([N+](=O)[O-])ccc1NC(=O)COC(=O)c1n[nH]c2ccccc12 | inconclusive: 35.1%
COCCn1c(=S)[nH]c2ncccc2c1=O | inconclusive: 52.5%
Cc1cccc(NC(=S)N/N=C/c2cccc([N+](=O)[O-])c2)c1 | inconclusive: 44%
COc1cccc(/C=C2\N=C(c3c(-c4ccccc4)noc3C)OC2=O)c1 | inconclusive: 35.3%
CC1CCC2(CC1)NC(=O)N(CC(=O)Nc1sc3c(c1C(N)=O)CCC3)C2=O (stereo unspecified) | inconclusive: 35.6%
Cc1cc(C)nc(-n2ncc3c2CC(c2ccc(F)cc2)CC3=O)n1 (stereo unspecified) | inconclusive: 59.2%
COC(=O)C1=C(C)N(C)C(=O)/C1=C\c1ccco1 | inactive: 9.7%
Cc1ccc(S(=O)(=O)NCc2n[nH]c(=S)n2C)cc1 | inconclusive: 33.2%
Cc1ncc(CO)c(/C=N/NC(=O)c2ccccc2Br)c1O | inconclusive: 62.3%
CCCOc1ccc(OCCSc2ncccn2)cc1 | inconclusive: 33.5%
C[C@H]1O[C@H]1P(=O)(O)O | inconclusive: 37%
CCCc1nc2ccccc2c(=O)n1NC(=O)c1c(O)c2ccccc2n(C)c1=O | inconclusive: 49.9%

2 entries from above, as comma-separated lines:
SMILES,inhibition
Oc1ccc(CNc2ccccc2F)c2cccnc12,inconclusive: 18.9%
CN(C)S(=O)(=O)N(CC(=O)Nc1cccc(F)c1)c1ccccc1,inconclusive: 60.7%

The listing continues.

SMILES | inhibition
CS(=O)(=O)N(CC(=O)N1CCN(c2ccccc2)CC1)c1cccc(Br)c1 | inconclusive: 46.4%
CS(=O)(=O)N(CC(=O)NCc1ccncc1)c1cc(Cl)cc(Cl)c1 | inconclusive: 57.6%
COc1cc(NC(=O)C2=C(N3CCOCC3)/C(=C\c3ccc(Br)cc3)CC2)cc(OC)c1OC | inconclusive: 40.4%
O=C(COC(=O)C(O)C(O)C(=O)OCC(=O)c1ccc(C(F)(F)F)cc1)c1ccc(C(F)(F)F)cc1 (stereo unspecified) | inconclusive: 46.7%
COc1ccc(COCC(O)CN(Cc2ccccc2)C(C)C)cc1OC (stereo unspecified) | inconclusive: 38.6%
CC1CC/C(=C\c2ccc3c(c2)OCO3)C(=O)/C1=C/c1ccc2c(c1)OCO2 (stereo unspecified) | inconclusive: 35.4%
CCOc1ccc(N2C(=O)CC(N(Cc3ccco3)C(=O)CC)C2=O)cc1 (stereo unspecified) | inactive: 0.31%
COc1ccc(NC(c2ccccc2)c2ccncc2)cc1 (stereo unspecified) | inactive: 7.39%
CCOC(=O)C1CCN(c2ncnc3c2oc2ccccc23)CC1 | inconclusive: 26.2%
O=C(NC1CCC(NC(=O)C2CCCO2)CC1)C1CCCO1 (stereo unspecified) | inconclusive: 15.2%
Cc1nn(-c2ccccc2)c2c1C1(C(=O)N3c4c(cccc41)C(C)CC3(C)C)C(C#N)=C(N)O2 (stereo unspecified) | inconclusive: 37.4%
O=c1cc(-c2ccccc2Cl)oc2c([N+](=O)[O-])c(O)cc(O)c12 | inconclusive: 47%
COC(=O)c1ccc2c(=O)[nH]c(CN3c4ccccc4CC3C)nc2c1 (stereo unspecified) | inactive: 8.14%
CC(C)NC(=O)C(=O)NCCCN1CCOCC1 | inconclusive: 37.1%
Cc1c(NC(=O)c2cc(-c3ccccc3)nc3ccccc23)c(=O)n(-c2ccccc2)n1C | inactive: -2.43%
Cc1nc2c(C(=O)NCCC3=CCCCC3)c[nH]n2c(=O)c1Cl | inconclusive: 43%
Cn1nc(-c2ccc(C(=O)NCCO)cc2)c2ccccc2c1=O | inconclusive: 33.7%
CC(C)CCSc1cc(NCCO)c([N+](=O)[O-])c2nonc12 | inactive: -1.66%
CC(C)(CN1CCC(Cc2ccccc2)CC1)NS(=O)(=O)c1ccccc1 | inconclusive: 34.9%
C=CCn1c(SCC(=O)NCCCC(=O)OCC)nc2scc(-c3ccco3)c2c1=O | inactive: -13%
Oc1ccc(N2CCN(C(c3cccnc3)c3nnnn3Cc3ccccc3)CC2)cc1 (stereo unspecified) | inconclusive: 38.7%
Cc1ccc(OC(=O)c2ccc3snnc3c2)cc1 | inconclusive: 34.1%
Cc1ccc(-c2noc(-c3cc(C(C)(C)C)nn3Cc3ccccc3)n2)cc1 | inconclusive: 39%

SMILES | inhibition
COc1ccccc1NC(=S)N1CCN(c2ncccn2)CC1 | inconclusive: 46%
CN1CCN(C(CNS(=O)(=O)c2ccc(F)cc2)c2cccnc2)CC1 (stereo unspecified) | inconclusive: 38.6%
COc1ccc(C2SCC(=O)N2c2c(C)n(C)n(-c3ccccc3)c2=O)cc1OC (stereo unspecified) | inconclusive: 61.1%
CCOC(=O)CC1C(=O)NCCN1C(=O)c1ccc(F)cc1F (stereo unspecified) | inconclusive: 41.1%
COc1ccc(CCn2c(NN=C(C)C)nc3c2c(=O)[nH]c(=O)n3C)cc1 | inconclusive: 35.4%
CCCn1ncc(CN2CCN(Cc3ccc(C)o3)C(CCO)C2)c1C (stereo unspecified) | inconclusive: 47.4%
Cc1nn(-c2ccccc2)c(C)c1NC(=O)c1ccc(S(=O)(=O)N2CCCC2)cc1 | inconclusive: 36.1%
O=C(NCc1ccc(Cl)cc1)C(=O)Nc1nccs1 | inconclusive: 54.4%
C[C@H](NC(N)=O)C(=O)Nc1ccc2c(c1)OCO2 | inconclusive: 46.5%
Cc1ccc(N2C(=O)/C(=C/c3ccco3)SC2=S)cc1 | inactive: -7.25%
O=C(Cc1ccccc1)NC(Nc1cccc2ccccc12)C(Cl)(Cl)Cl (stereo unspecified) | inactive: -5.91%
COc1cccc(-n2c(COc3ccccc3C)nnc2SCC(=O)O)c1 | inconclusive: 27%
CCOc1ccc(/C=N/NC(=O)CC(=O)Nc2ccc(Cl)c(Cl)c2)cc1 | inconclusive: 38.2%
COc1ccc(CCN2CC(C(=O)N(C)CCn3nc(C)cc3C)CCC2=O)cc1 (stereo unspecified) | inactive: 6.02%
O=C(COC(=O)c1cccc(Br)c1)NCCC1=CCCCC1 | inconclusive: 34.6%
O=C(CNCc1ccc(F)cc1)Nc1ccccc1[N+](=O)[O-] | inconclusive: 36.2%
O=C(OCC(=O)N1CCOCC1)c1ccc2c(c1)OCCO2 | inconclusive: 26.7%
Cc1ccc(SC(C)C(=O)Nc2ccc(S(=O)(=O)N3CCOCC3)cc2)cc1 (stereo unspecified) | inconclusive: 61.4%
CCOC(=O)CSC1=C(C#N)C(c2ccccc2OCC)C(C(=O)OCC)C(=O)N1 (stereo unspecified) | inconclusive: 58.7%
O=C1NC(=O)/C(=C/c2ccc(N3CCOCC3)o2)N1 | inactive: 12.2%
CCCc1cc(N2CCCC(C(=O)Nc3ccc(OC)cc3OC)C2)n2ncnc2n1 (stereo unspecified) | inconclusive: 20.1%
Fc1cccc(COc2ccccc2CNc2ccccc2)c1 | inactive: 8.86%

Retrieved one by one from above:
SMILES | inhibition
CCOc1ccc(/C=N/NC(=O)CC(=O)Nc2ccc(Cl)c(Cl)c2)cc1 | inconclusive: 38.2%
O=C(CNCc1ccc(F)cc1)Nc1ccccc1[N+](=O)[O-] | inconclusive: 36.2%
COc1ccc(C2SCC(=O)N2c2c(C)n(C)n(-c3ccccc3)c2=O)cc1OC (stereo unspecified) | inconclusive: 61.1%
CCOC(=O)CC1C(=O)NCCN1C(=O)c1ccc(F)cc1F (stereo unspecified) | inconclusive: 41.1%
